Source: PMC7862563
These are yes or no findings as the source states them, for the method shown. In cells and extracts the contact can be indirect. Some entries that bind do so weakly or less than the wild type.

T1: RING finger protein 180 (RNF180) (human (endogenous in LOVO and RKO)) (UniProt Q86T96)
T1 sequence: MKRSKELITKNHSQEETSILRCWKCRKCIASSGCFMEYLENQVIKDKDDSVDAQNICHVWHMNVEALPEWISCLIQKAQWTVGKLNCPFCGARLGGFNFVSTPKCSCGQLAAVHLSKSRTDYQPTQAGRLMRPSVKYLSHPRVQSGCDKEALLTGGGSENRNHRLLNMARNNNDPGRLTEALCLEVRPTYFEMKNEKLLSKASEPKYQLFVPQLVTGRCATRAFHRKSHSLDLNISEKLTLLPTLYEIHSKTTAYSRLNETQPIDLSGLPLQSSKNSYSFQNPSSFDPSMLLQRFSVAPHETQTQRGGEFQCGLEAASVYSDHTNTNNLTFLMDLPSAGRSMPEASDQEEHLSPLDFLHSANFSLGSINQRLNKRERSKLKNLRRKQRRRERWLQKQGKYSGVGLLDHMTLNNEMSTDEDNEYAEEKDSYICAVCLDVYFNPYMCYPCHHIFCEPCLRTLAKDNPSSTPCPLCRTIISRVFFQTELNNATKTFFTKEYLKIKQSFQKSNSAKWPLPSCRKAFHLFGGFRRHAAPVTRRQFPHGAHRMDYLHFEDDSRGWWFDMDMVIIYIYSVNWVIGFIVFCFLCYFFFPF

T2: WNT1 inducible signaling pathway protein 1 (WISP1) (human (endogenous in LOVO and RKO)) (UniProt O95388)
T2 sequence: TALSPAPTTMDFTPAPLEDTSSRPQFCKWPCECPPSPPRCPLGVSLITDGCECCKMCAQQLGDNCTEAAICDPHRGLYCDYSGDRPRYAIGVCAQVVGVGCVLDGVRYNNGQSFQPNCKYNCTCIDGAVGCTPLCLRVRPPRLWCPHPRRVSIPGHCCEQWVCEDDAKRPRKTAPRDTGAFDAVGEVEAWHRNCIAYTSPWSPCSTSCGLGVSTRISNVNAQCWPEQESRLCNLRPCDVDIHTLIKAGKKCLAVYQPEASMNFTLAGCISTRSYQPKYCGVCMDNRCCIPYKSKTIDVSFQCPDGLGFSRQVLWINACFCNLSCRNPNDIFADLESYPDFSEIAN


Tests used:
[1] = target: T1, RING finger protein 180 (RNF180) (human (endogenous in LOVO and RKO)); experiment: co-IP; LOVO and RKO cell lysates (RIPA buffer) with anti-RNF180, anti-WISP1 or normal IgG at 4°C overnight, Protein A/G PLUS-Agarose beads; immunoblot with anti-RNF180 and anti-WISP1
[2] = target: T2, WNT1 inducible signaling pathway protein 1 (WISP1) (human (endogenous in LOVO and RKO)); experiment: as above

Row | binding [1] | binding [2] | Binder
1 | binds | – | WNT1 inducible signaling pathway protein 1 (WISP1) (protein, UniProt O95388 23-367) TALSPAPTTMDFTPAPLEDTSSRPQFCKWPCECPPSPPRCPLGVSLITDGCECCKMCAQQLGDNCTEAAICDPHRGLYCDYSGDRPRYAIGVCAQVVGVGCVLDGVRYNNGQSFQPNCKYNCTCIDGAVGCTPLCLRVRPPRLWCPHPRRVSIPGHCCEQWVCEDDAKRPRKTAPRDTGAFDAVGEVEAWHRNCIAYTSPWSPCSTSCGLGVSTRISNVNAQCWPEQESRLCNLRPCDVDIHTLIKAGKKCLAVYQPEASMNFTLAGCISTRSYQPKYCGVCMDNRCCIPYKSKTIDVSFQCPDGLGFSRQVLWINACFCNLSCRNPNDIFADLESYPDFSEIAN
2 | – | binds | RING finger protein 180 (RNF180) (enzyme, UniProt Q86T96 1-592) MKRSKELITKNHSQEETSILRCWKCRKCIASSGCFMEYLENQVIKDKDDSVDAQNICHVWHMNVEALPEWISCLIQKAQWTVGKLNCPFCGARLGGFNFVSTPKCSCGQLAAVHLSKSRTDYQPTQAGRLMRPSVKYLSHPRVQSGCDKEALLTGGGSENRNHRLLNMARNNNDPGRLTEALCLEVRPTYFEMKNEKLLSKASEPKYQLFVPQLVTGRCATRAFHRKSHSLDLNISEKLTLLPTLYEIHSKTTAYSRLNETQPIDLSGLPLQSSKNSYSFQNPSSFDPSMLLQRFSVAPHETQTQRGGEFQCGLEAASVYSDHTNTNNLTFLMDLPSAGRSMPEASDQEEHLSPLDFLHSANFSLGSINQRLNKRERSKLKNLRRKQRRRERWLQKQGKYSGVGLLDHMTLNNEMSTDEDNEYAEEKDSYICAVCLDVYFNPYMCYPCHHIFCEPCLRTLAKDNPSSTPCPLCRTIISRVFFQTELNNATKTFFTKEYLKIKQSFQKSNSAKWPLPSCRKAFHLFGGFRRHAAPVTRRQFPHGAHRMDYLHFEDDSRGWWFDMDMVIIYIYSVNWVIGFIVFCFLCYFFFPF
